Measured values: PMC10620127
These are yes or no findings as the source states them, for the method shown. In cells and extracts the contact can be indirect. Some binding calls cover weakened binding; strength is not graded here.

Biological target: T1, interferon regulatory factor 4 (UniProt Q64287)
T1 sequence: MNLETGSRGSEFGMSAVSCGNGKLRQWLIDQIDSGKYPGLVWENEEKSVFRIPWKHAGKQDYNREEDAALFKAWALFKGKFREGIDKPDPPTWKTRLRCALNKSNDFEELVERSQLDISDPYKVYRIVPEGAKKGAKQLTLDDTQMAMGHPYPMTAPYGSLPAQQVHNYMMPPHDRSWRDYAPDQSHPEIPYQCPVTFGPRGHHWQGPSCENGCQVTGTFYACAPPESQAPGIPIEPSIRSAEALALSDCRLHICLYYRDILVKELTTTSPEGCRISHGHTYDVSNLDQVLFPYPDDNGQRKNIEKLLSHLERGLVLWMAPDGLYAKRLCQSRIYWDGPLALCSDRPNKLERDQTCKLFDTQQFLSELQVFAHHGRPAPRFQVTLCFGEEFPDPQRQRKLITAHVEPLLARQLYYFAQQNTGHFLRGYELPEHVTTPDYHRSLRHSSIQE
Experiment: co-IP; Peli3 and IRF4 constructs transfected into HEK293 cells; lysates after 48 h; precipitated with anti-Flag antibody, Peli3 detected with anti-HA antibody

B1: E3 ubiquitin-protein ligase pellino homolog 3 (enzyme, UniProt Q8BXR6 1-445)
chain: MVLEGNPDVGSPRTSDLQHPGSQGSCILSCPGEEALAGEEPIKYGELIVLGYNGCLASGDKGRRRSRLALSRRPHANGVKPDVMHHISTPLVSKALSNRGQHSISFTLSRSHSVIVEYTHDSDKDMFQIGRSTENMIDFVVTDTSPGGGATEGPSAQSTISRYACRILCDRRPPYTARIYAAGFDASSNIFLGERAAKWRTPDGLMDGLTTNGVLVMHPAGGFSEDSAPGVWREISVCGNVYTLRDSRSAQQRGKLVENESNVLQDGSLIDLCGATLLWRTPAGLLRAPTLKQLEAQRQEANAARPQCPVGLSTLAFPSPARGRTAPDKQQPWVYVRCGHVHGYHGWGCRRERGPQERECPLCRLVGPYVPLWLGQEAGLCLDPGPPSHAFAPCGHVCSEKTARYWAQTPLPHGTHAFHAACPFCGAWLTGELGCVRLIFQGPLD
binding: binds
